The other results are listed elsewhere or left out.
Tests used:
Assay in all cases: log2 fold change, soluble protein after heating vs DMSO (PISA); higher = thermal stabilisation; K562 cells, 10 uM, 30 min; active = over 0.2 and 3.5 SD of the protein, either way, in both replicates (recomputed)
[1] = compound: CC[C@@H]1C(=O)N(C)c2cnc(Nc3ccc(C(=O)NC4CCN(C)CC4)cc3OC)nc2N1C1CCCC1
In short: (§1)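 K562 cells at 2×10^6 cells/mL were treated with 10 μM compound for 30 min. Aliquots were heated for 3 min across 48°C-58°C, pooled, and extracted in PBS with 0.5% NP-40 at 4°C; soluble protein was the supernatant after 21,000xg for 90 min. Soluble protein was quantified by TMTpro 16plex LC-MS/MS with channel sums equalised, and reported as log2 fold change in thermal stability against DMSO controls, with values from duplicates.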

Chains of the proteins cited; added tags and fusions are not shown. Lines headed by an entry give the natural chain unless they say otherwise; changes in a name come on top.
UniProt Q96P47: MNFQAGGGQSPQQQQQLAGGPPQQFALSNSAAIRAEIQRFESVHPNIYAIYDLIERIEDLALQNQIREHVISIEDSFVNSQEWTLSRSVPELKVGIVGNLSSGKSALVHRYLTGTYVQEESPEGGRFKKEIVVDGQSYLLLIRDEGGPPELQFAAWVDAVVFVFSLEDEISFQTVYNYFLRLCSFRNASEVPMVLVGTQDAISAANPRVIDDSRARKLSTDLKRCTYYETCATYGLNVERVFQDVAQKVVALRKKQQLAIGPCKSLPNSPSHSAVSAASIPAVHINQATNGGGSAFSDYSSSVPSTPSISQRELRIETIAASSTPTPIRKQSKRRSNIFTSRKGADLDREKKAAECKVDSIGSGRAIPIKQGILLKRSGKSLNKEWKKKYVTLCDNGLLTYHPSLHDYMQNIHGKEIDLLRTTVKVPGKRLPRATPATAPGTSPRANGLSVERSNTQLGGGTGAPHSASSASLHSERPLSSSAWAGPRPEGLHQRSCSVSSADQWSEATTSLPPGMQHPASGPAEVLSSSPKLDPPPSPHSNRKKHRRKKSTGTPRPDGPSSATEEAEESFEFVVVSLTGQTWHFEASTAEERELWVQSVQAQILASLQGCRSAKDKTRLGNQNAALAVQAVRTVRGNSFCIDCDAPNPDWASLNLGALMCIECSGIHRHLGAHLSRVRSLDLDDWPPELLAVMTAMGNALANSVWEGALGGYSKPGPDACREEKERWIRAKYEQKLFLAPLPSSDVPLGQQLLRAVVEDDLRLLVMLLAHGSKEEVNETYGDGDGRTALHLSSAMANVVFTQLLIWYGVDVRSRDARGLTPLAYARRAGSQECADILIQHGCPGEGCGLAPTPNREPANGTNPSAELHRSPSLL
UniProt Q9NXW9: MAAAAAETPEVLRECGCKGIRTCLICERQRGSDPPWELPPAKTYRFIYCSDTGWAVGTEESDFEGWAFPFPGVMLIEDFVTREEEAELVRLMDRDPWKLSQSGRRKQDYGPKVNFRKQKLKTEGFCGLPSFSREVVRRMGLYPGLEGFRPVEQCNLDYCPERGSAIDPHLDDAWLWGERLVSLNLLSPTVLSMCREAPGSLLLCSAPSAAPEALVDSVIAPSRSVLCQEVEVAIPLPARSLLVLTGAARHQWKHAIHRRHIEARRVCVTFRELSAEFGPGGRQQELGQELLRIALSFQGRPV
UniProt P55196: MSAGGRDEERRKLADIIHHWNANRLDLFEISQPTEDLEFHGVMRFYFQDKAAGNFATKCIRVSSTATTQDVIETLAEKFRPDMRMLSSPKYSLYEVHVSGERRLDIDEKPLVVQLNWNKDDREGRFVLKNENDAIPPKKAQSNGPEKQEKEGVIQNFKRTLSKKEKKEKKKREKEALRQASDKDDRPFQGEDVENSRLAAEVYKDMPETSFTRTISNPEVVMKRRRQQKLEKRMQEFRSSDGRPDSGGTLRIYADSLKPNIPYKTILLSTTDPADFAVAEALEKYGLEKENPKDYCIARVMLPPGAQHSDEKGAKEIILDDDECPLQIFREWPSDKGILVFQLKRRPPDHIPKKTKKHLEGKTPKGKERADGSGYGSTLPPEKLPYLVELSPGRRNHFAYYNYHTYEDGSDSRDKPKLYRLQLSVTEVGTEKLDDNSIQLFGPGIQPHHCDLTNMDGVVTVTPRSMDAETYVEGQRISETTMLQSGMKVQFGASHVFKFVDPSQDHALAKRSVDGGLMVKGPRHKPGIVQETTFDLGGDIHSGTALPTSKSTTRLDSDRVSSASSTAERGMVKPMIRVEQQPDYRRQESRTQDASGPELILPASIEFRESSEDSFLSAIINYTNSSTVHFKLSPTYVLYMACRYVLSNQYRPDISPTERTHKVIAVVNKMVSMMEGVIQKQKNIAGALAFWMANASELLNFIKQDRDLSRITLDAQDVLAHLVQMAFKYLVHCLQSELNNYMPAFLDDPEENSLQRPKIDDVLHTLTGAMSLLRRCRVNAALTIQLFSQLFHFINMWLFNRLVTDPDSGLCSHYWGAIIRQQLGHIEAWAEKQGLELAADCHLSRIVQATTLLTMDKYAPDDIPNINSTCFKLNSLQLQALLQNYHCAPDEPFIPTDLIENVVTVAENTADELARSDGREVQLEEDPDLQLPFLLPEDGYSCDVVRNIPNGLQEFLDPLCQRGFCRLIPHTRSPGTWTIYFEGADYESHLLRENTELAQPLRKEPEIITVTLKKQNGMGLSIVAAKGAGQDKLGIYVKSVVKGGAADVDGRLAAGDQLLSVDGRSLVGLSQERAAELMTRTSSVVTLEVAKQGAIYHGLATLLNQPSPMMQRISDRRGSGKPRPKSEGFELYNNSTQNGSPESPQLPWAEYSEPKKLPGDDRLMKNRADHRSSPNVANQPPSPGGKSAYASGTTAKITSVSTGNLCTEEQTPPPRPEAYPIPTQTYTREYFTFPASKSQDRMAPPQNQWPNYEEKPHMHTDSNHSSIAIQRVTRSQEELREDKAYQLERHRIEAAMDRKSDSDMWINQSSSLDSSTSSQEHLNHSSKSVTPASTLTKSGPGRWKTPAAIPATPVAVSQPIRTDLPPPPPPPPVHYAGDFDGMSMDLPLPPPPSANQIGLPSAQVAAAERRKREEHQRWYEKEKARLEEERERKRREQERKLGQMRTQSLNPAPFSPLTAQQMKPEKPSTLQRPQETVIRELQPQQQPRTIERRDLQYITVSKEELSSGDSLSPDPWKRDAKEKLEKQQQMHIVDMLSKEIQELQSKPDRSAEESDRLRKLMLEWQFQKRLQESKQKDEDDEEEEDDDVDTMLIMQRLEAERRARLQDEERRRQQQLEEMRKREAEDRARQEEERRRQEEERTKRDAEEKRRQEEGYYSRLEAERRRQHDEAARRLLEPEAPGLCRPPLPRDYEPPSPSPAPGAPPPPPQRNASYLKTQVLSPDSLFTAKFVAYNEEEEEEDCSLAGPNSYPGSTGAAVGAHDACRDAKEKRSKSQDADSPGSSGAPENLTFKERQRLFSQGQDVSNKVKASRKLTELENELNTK
UniProt Q8WV93: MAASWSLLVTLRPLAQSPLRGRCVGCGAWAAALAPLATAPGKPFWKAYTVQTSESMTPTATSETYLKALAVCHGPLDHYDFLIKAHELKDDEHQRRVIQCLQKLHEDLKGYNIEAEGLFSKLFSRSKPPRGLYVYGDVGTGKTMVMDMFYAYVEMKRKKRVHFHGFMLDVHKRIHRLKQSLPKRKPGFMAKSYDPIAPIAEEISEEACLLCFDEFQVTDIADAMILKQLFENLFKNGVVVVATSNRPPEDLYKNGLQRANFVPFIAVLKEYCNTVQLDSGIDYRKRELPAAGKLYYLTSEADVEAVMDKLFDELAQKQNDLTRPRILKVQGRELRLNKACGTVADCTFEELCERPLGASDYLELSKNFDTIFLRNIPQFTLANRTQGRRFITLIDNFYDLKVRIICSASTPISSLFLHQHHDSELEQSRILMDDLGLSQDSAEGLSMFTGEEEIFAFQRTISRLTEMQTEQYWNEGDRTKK
UniProt Q8WYP5: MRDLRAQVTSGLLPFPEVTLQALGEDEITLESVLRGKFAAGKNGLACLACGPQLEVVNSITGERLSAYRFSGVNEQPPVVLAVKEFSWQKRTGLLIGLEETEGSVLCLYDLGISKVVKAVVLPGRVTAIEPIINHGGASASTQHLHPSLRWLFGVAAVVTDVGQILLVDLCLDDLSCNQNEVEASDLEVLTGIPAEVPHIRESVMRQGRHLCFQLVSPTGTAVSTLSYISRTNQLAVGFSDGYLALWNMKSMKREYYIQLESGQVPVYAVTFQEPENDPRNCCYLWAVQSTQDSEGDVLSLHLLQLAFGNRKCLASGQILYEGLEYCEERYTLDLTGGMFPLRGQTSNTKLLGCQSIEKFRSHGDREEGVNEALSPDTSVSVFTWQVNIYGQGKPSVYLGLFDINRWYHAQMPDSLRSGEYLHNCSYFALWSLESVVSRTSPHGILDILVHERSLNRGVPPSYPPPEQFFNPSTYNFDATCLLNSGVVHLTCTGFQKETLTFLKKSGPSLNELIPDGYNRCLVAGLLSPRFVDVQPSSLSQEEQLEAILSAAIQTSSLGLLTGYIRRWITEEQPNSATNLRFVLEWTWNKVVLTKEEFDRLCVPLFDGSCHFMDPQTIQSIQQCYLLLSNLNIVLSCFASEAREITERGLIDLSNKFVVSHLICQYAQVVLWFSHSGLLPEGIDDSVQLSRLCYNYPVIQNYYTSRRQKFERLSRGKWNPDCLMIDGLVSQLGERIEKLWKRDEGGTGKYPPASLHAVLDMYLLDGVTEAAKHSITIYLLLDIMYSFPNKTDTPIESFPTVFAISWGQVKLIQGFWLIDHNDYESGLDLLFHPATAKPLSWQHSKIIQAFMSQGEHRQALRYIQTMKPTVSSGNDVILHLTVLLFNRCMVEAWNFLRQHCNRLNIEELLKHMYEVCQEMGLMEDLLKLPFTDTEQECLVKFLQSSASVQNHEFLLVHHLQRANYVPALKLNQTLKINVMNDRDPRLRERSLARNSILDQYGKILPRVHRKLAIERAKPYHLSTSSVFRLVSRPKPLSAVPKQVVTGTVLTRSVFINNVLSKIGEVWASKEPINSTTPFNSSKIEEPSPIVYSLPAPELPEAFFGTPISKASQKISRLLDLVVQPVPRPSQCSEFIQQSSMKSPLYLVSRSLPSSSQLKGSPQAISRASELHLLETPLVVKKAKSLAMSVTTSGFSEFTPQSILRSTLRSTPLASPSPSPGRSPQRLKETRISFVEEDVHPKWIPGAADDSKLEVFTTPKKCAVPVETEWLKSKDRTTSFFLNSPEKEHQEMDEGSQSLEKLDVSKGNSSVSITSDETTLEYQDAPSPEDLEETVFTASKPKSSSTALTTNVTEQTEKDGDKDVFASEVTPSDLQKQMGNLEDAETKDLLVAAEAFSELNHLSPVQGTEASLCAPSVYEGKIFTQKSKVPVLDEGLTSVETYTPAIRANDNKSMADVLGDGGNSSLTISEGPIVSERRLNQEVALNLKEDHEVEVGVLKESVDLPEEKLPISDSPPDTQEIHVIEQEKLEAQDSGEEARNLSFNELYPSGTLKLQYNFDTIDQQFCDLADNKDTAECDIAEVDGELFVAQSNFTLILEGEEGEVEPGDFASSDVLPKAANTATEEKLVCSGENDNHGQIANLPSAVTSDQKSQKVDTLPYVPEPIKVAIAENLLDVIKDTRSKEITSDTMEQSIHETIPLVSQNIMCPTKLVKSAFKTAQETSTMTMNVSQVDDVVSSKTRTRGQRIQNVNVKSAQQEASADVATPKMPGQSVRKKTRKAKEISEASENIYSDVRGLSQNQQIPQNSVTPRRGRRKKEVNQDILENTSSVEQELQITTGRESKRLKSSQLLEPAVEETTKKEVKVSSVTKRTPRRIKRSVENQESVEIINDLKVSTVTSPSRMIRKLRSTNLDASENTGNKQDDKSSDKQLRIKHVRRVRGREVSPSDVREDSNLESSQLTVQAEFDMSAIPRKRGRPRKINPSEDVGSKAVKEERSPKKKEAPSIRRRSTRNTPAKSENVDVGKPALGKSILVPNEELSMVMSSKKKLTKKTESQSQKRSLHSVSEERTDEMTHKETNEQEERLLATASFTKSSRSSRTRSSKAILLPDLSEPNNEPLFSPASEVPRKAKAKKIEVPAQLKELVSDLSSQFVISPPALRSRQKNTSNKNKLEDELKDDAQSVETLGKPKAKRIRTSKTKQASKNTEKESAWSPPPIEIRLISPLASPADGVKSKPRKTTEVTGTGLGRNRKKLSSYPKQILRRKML
UniProt Q6RW13: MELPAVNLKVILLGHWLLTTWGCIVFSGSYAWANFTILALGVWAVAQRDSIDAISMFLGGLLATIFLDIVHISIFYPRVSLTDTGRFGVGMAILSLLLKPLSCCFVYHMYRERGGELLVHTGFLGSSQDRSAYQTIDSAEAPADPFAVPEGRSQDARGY
UniProt Q9NRZ7: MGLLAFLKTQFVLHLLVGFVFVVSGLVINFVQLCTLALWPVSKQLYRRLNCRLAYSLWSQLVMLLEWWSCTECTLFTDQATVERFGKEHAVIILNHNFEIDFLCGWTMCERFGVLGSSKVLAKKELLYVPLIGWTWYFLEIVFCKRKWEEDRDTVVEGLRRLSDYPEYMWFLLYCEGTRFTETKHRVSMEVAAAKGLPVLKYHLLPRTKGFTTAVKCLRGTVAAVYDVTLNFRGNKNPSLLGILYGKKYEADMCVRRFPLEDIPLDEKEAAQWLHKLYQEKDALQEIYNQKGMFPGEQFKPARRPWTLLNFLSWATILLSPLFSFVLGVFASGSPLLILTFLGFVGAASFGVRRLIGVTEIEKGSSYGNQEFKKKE
UniProt Q96F25: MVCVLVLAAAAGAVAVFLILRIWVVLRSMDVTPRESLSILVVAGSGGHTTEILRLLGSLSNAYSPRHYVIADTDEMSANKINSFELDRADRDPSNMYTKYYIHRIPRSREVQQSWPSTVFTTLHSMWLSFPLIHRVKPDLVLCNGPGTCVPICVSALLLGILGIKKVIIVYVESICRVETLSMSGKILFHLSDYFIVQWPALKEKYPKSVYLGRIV

volasertib = compound: CC[C@@H]1C(=O)N(C)c2cnc(Nc3ccc(C(=O)N[C@H]4CC[C@H](N5CCN(CC6CC6)CC5)CC4)cc3OC)nc2N1C(C)C [volasertib]
In short: as §1

[2] = compound: CC[C@H](C)N1C=C(C2=C(C=C(C=C21)C3=CN=C(C=C3)N4CCNCC4)C(=O)NCC5=C(C=C(NC5=O)C)C)C
In short: as §1

epoxomicin = compound: CC[C@H](C)[C@@H](C(=O)N[C@@H]([C@@H](C)O)C(=O)N[C@@H](CC(C)C)C(=O)[C@]1(CO1)C)NC(=O)[C@H]([C@@H](C)CC)N(C)C(=O)C [epoxomicin]
In short: as §1

sotrastaurin = compound: CN1CCN(c2nc(C3=C(c4c[nH]c5ccccc45)C(=O)NC3=O)c3ccccc3n2)CC1 [sotrastaurin]
In short: as §1

Tubastatin A = compound: CN1CCc2c(c3ccccc3n2Cc2ccc(C(=O)NO)cc2)C1 [Tubastatin A]
In short: as §1

[3] = compound: CNC(=O)C1=CC=CC=C1NC2=NC(=NC=C2Cl)NC3=C(C=C(C=C3)N4CCOCC4)OC
In short: as §1

rucaparib = compound: CNCc1ccc(-c2[nH]c3cc(F)cc4c3c2CCNC4=O)cc1 [rucaparib]
In short: as §1

encorafenib = compound: COC(=O)N[C@@H](C)CNc1nccc(-c2cn(C(C)C)nc2-c2cc(Cl)cc(NS(C)(=O)=O)c2F)n1 [encorafenib]
In short: as §1

[4] = compound: CCn1cc(-c2ccnc3[nH]c(-c4cccc(CN(C)C)c4)cc23)c(-c2ccc(NC(=O)N(C)C)cc2)n1
In short: as §1

[5] = compound: CN(C)CC(=O)Nc1ccc2[nH]c(=O)c3ccccc3c2c1
In short: as §1

[6] = compound: CN1C2=C(C3=C1C(=O)N(N=C3)CC4=CC(=CC=C4)N)SC(=C2)S(=O)C
In short: as §1

[7] = compound: CN1CCC(CNc2ccc3ncc(-c4cccc(OC(F)(F)F)c4)n3n2)CC1
In short: as §1

saracatinib = compound: CN1CCN(CCOc2cc(OC3CCOCC3)c3c(Nc4c(Cl)ccc5c4OCO5)ncnc3c2)CC1 [saracatinib]
In short: as §1

defactinib = compound: CNC(=O)c1ccc(Nc2ncc(C(F)(F)F)c(NCc3nccnc3N(C)S(C)(=O)=O)n2)cc1 [defactinib]
In short: as §1

[8] = compound: CNc1nc(-c2ccc3c(N)n[nH]c3c2)cc(N2C[C@@H](C(=O)NC3CCCCC3)CC[C@H]2C)n1
In short: as §1

[9] = compound: COC(=O)[C@H](CCSC)NC(=O)C1=C(C=C(C=C1)NC[C@H](CS)N)C2=CC=CC=C2
In short: as §1

[10] = compound: CCn1c(C(=O)N(C2CC2)C2CC2)cc2c3c(ncn3C)c(Nc3cc(C)n(C)n3)nc21
In short: as §1

alvocidib = compound: CN1CC[C@H](c2c(O)cc(O)c3c(=O)cc(-c4ccccc4Cl)oc23)[C@H](O)C1 [alvocidib]
In short: as §1

rosiglitazone = compound: CN(CCOC1=CC=C(C=C1)C[C@H]2C(=O)NC(=O)S2)C3=CC=CC=N3 (racemic) [rosiglitazone]
In short: as §1

Target	log2 fold change [1]	log2 fold change (volasertib)	log2 fold change [2]	log2 fold change (epoxomicin)	log2 fold change (sotrastaurin)	log2 fold change (Tubastatin A)	log2 fold change [3]	log2 fold change (rucaparib)	log2 fold change (encorafenib)	log2 fold change [4]	log2 fold change [5]	log2 fold change [6]	log2 fold change [7]	log2 fold change (saracatinib)	log2 fold change (defactinib)	log2 fold change [8]	log2 fold change [9]	log2 fold change [10]	log2 fold change (alvocidib)	log2 fold change (rosiglitazone)
AGAP3 isoform 4 (UniProt Q96P47)	inactive: 0.154	inactive: -0.038	inactive: 0.105	inactive: 0.034	inactive: -0.233	inactive: 0.166	inactive: -0.033	inactive: 0.178	inactive: -0.104											
ALKBH4 (UniProt Q9NXW9)	inactive: -0.064	inactive: -0.263		inactive: 0.117	inactive: -0.106	inactive: 0.086	inactive: 0.198	inactive: 0.07	inactive: 0.074	inactive: -0.023	inactive: 0.056	inactive: -0.077	inactive: -0.082	inactive: -0.072	inactive: -0.056	inactive: 0.03	inactive: 0.071			
ALDH18A1 (UniProt P54886)	inactive: -0.418	active: -0.713	inactive: 0.092	inactive: 0.1	inactive: -0.178	inactive: -0.027	inactive: -0.065	inactive: 0.001	inactive: 0.098	inactive: -0.208	inactive: 0.041	inactive: 0.054	inactive: -0.054	inactive: -0.038	inactive: -0.122	inactive: -0.281	inactive: -0.047			
ALDH7A1 (UniProt P49419)	inactive: -0.005			inactive: 0.055	inactive: -0.074			inactive: 0	inactive: -0.098	inactive: 0.19			inactive: -0.018							
AFDN isoform 1 (UniProt P55196)	inactive: -0.019			inactive: 0.064	inactive: -0.047		inactive: -0.025	inactive: 0.009	inactive: 0.018	inactive: -0.075	inactive: -0.069	inactive: 0.111	inactive: 0.062	inactive: -0.192	inactive: 0.021	inactive: -0.175	inactive: -0.302			
AFG1L (UniProt Q8WV93)	inactive: 0.047	inactive: -0.223	inactive: 0.207	inactive: 0.035	inactive: -0.075	inactive: -0.204	inactive: -0.011	inactive: -0.057	inactive: 0.025		inactive: 0.063	inactive: -0.122		inactive: -0.038	inactive: -0.131	inactive: 0.002	inactive: 0.088			
ANAPC15 isoform 2 (UniProt P60006)	inactive: 0.2	inactive: 0.093				inactive: 0.037	inactive: -0.078	inactive: 0.291	inactive: 0.087		inactive: -0.092				inactive: 0.143		inactive: -0.024	inactive: 0.321	inactive: 0.273	
AHCTF1 isoform 2 (UniProt Q8WYP5)	inactive: 0.027		inactive: 0.065	inactive: -0.034	inactive: 0.069	inactive: -0.03	inactive: 0.069	inactive: 0.314	inactive: 0.132	inactive: 0	inactive: 0.108	inactive: 0.118	inactive: -0.017	inactive: 0.116	inactive: -0.18	inactive: 0.039	inactive: -0.098	inactive: -0.056	inactive: -0.045	inactive: 0.032
AEBP2 (UniProt Q6ZN18)	inactive: 0.006			inactive: 0.071			inactive: -0.011	inactive: 0.022	inactive: 0.038									inactive: -0.015		inactive: 0.083
AGA (UniProt P20933)	inactive: 0.145	inactive: 0.178					inactive: -0.019	inactive: -0.146	inactive: -0.038	inactive: 0.1			inactive: 0.073					inactive: -0.052	inactive: 0.114	inactive: 0.066
ALKBH8 isoform 4 (UniProt Q96BT7)	inactive: 0.107			inactive: -0.001	inactive: 0.031			inactive: 0.244	inactive: 0.069	inactive: -0.2		inactive: 0.223	inactive: -0.07	inactive: -0.247		inactive: 0.079			inactive: -0.077	inactive: 0.116
ADGB (UniProt Q8N7X0)	inactive: -0.281	inactive: 0.042		inactive: -0.025				inactive: 0.348	inactive: -0.514	inactive: 0.111			inactive: -0.545							
AKTIP isoform 2 (UniProt Q9H8T0)	inactive: -0.084	inactive: -0.288		inactive: 0.02	inactive: -0.008			inactive: -0.027	inactive: -0.03											inactive: -0.374
AGTRAP isoform 2 (UniProt Q6RW13)	inactive: -0.029					inactive: -0.057	inactive: -0.031	inactive: -0.11	inactive: -0.047	inactive: 0.042			inactive: 0.025					inactive: 0.023		
ADGRV1 (UniProt Q8WXG9)	inactive: 0.269		inactive: -0.132	inactive: -0.075	inactive: 0.034			inactive: -0.221	inactive: 0.012	inactive: 0.083			inactive: -0.077						inactive: 0.064	inactive: 0.042
AGPAT3 isoform 3 (UniProt Q9NRZ7)	inactive: -0.095	active: -0.211	inactive: 0.017	inactive: 0.02	inactive: -0.084	inactive: 0.019	inactive: 0.012	inactive: -0.036	inactive: -0.001	inactive: -0.082	inactive: 0.012	inactive: -0.069	inactive: 0.001	inactive: 0.01	inactive: -0.037	inactive: -0.045	inactive: 0.008			
ALG14 (UniProt Q96F25)	inactive: 0.2	inactive: 0.11	inactive: -0.077	inactive: 0.382		inactive: -0.027	inactive: -0.001	inactive: -0.173	inactive: 0.028	inactive: -0.215	inactive: 0.062	inactive: -0.124	inactive: 0.443	inactive: 0.049	inactive: 0.091	inactive: -0.022	inactive: -0.002			

Laid out differently: results already given
Target | log2 fold change [1] | log2 fold change (volasertib) | log2 fold change [2] | log2 fold change (epoxomicin) | log2 fold change (sotrastaurin) | log2 fold change (Tubastatin A) | log2 fold change [3] | log2 fold change (rucaparib) | log2 fold change (encorafenib) | log2 fold change [4] | log2 fold change [5] | log2 fold change [6] | log2 fold change [7] | log2 fold change (saracatinib) | log2 fold change (defactinib) | log2 fold change [8] | log2 fold change [9] | log2 fold change [10] | log2 fold change (alvocidib) | log2 fold change (rosiglitazone)
ADGB (UniProt Q8N7X0) | inactive: -0.281 | inactive: 0.042 |  | inactive: -0.025 |  |  |  | inactive: 0.348 | inactive: -0.514 | inactive: 0.111 |  |  | inactive: -0.545 |  |  |  |  |  |  | 
AKTIP isoform 2 (UniProt Q9H8T0) | inactive: -0.084 | inactive: -0.288 |  | inactive: 0.02 | inactive: -0.008 |  |  | inactive: -0.027 | inactive: -0.03 |  |  |  |  |  |  |  |  |  |  | inactive: -0.374

— the supplement of paper PMC10849652
